For the test, the target named is DAP12 (human) (UniProt O43914). The experiment in a line: co-immunoprecipitation from pervanadate-treated monocytes, anti-DAP12 blot.

Sequences of proteins named here, by UniProt entry; tags and fusion partners are left off. A change or cut given only in a name is not applied to a line headed by its entry. Residues count along the entry.
UniProt O43914, residues 22-113: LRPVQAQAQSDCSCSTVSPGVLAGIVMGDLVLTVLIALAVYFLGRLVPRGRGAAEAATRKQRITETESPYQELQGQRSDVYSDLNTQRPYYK
UniProt Q9NP99: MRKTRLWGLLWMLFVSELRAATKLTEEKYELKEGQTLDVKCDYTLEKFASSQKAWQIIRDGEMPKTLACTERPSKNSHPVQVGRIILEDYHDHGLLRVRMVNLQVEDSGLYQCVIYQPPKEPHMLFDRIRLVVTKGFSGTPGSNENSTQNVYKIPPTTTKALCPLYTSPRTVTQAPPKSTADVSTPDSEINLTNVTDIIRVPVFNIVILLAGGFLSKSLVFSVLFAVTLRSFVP

No constants are given. Whether binding was seen depends on the method and setting. In cells and extracts the contact can be indirect. Some entries that bind do so weakly or less than the wild type.

On to “human TREM-1 on blood monocytes and neutrophils (from UniProt Q9NP99 17-234) (receptor)”, for which the binding entry is on record as “binds”.

The values above are taken from patent publication US20170320946A1.
